No constants are given. Whether binding was seen depends on the method and setting. Binding seen in cells or lysates may run through a third protein. Some binding calls cover weakened binding; strength is not graded here. Where a sequence is shown, tags or fusion partners need not be part of it.
T1: phosducin-like protein 1 (PhLP1), c-Myc-tagged (UniProt Q13371)
T1 sequence: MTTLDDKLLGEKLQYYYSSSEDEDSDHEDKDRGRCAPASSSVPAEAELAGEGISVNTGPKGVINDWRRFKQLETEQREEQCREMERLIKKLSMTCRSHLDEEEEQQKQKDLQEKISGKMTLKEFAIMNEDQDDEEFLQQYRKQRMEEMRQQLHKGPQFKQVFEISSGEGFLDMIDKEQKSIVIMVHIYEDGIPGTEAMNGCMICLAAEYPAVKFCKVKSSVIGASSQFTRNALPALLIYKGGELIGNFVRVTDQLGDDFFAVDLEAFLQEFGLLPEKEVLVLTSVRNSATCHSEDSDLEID

Amino acid sequences for entries named in this document (tags omitted).
UniProt Q12834: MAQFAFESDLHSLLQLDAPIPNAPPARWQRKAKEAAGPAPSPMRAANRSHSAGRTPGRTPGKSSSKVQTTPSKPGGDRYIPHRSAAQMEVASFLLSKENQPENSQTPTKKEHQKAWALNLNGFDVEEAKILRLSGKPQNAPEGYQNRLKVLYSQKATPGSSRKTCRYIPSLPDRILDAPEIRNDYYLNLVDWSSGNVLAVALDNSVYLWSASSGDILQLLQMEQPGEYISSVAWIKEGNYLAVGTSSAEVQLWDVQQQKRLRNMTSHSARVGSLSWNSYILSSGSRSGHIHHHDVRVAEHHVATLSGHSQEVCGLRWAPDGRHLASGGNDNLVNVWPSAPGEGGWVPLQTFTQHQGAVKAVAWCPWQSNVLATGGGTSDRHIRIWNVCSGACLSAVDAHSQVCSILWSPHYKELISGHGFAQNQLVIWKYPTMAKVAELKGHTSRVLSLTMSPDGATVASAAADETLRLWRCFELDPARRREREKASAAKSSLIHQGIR


Molecular target: T1, phosducin-like protein 1 (PhLP1), c-Myc-tagged
Assay: co-IP; PhLP1-Myc immunoprecipitated with anti-Myc antibodies and Protein A/G beads from lysates of co-transfected CHO-K1 cells; blot with anti-V5

Row | binding | Molecule
1 | binds | Cell Division Cycle 20 protein (CDC20), V5-tagged (from UniProt Q12834 1-499)
2 | binds | Transducin Beta-Like Protein 2 (TBL2), V5-tagged (protein, UniProt Q9Y4P3 1-447) MELSQMSELMGLSVLLGLLALMATAAVARGWLRAGEERSGRPACQKANGFPPDKSSGSKKQKQYQRIRKEKPQQHNFTHRLLAAALKSHSGNISCMDFSSNGKYLATCADDRTIRIWSTKDFLQREHRSMRANVELDHATLVRFSPDCRAFIVWLANGDTLRVFKMTKREDGGYTFTATPEDFPKKHKAPVIDIGIANTGKFIMTASSDTTVLIWSLKGQVLSTINTNQMNNTHAAVSPCGRFVASCGFTPDVKVWEVCFGKKGEFQEVVRAFELKGHSAAVHSFAFSNDSRRMASVSKDGTWKLWDTDVEYKKKQDPYLLKTGRFEEAAGAAPCRLALSPNAQVLALASGSSIHLYNTRRGEKEECFERVHGECIANLSFDITGRFLASCGDRAVRLFHNTPGHRAMVEEMQGHLKRASNESTRQRLQQQLTQAQETLKSLGALKK
